According to paper PMC12375107 (Cell Death & Disease, 2025):
These are yes or no findings as the source states them, for the method shown. Binding seen in cells or lysates may run through a third protein. Binding calls can cover weak binding; strength is not graded here. Sequences can lack the tags named with a protein.

Biological target: T1, Flag-tagged CAD (caspase-activated DNase) (human) (UniProt O76075)
T1 sequence: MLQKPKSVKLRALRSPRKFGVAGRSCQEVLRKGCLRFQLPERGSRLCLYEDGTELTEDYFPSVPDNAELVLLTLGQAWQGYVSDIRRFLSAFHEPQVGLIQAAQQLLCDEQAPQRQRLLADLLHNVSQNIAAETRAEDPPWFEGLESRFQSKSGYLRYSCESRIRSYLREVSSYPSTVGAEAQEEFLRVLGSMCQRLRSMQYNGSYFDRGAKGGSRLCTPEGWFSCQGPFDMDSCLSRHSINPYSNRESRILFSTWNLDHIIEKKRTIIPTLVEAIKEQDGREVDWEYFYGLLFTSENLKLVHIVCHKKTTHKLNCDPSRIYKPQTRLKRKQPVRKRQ
Assay: co-IP; exogenous (transfected) proteins in lysates of HEK293T, HCT116 or HT29 cells; IP lysis buffer 25 mM HEPES, 150 mM NaCl, 1 mM EDTA, 1% NP-40, 10% glycerol, pH 7.4; antibody against Flag, MYC or HA, Protein A/G magnetic beads; western blotting

binding: binds
Substance: ICAD-NTD (domain or fragment)
